{"source": "PubChem BioAssay AID1259405, NCATS | 2018", "test": "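Silenced genes that increase secreted GFP made by CHO cells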 (primary screen)", "cells": "Chinese hamster CHO-K1 ovary cells with stable secreted eGFP expression", "reagents": "single siRNA against mouse genes, 0.8 pmol siRNA per well (2 µl of 400 nM stock)", "timing": "3 days", "read-out": "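Percent of the per-plate non-targeting control median for intracellular GFP per well by laser scanning cytometry and for cell viability by ATP luminescence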", "scale": "GFP, % of control: higher = more GFP per well, higher productivity; viability (ATP), % of control: higher = more viable cells (more ATP)", "call rule": "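a knock-down is called active if GFP reaches 120% or more of non-targeting control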", "note": "The whole screen tested about 50,000 reagents; below is a random part of them. In the full data, about 4,000 (8%) got an active call. 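Mouse siRNA library applied to hamster cells; one well for each siRNA.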 Unmarked entries are inactive."}
{"gene":"Cacna1g","PubChem SID":"SID363574407","GFP, % of control":44.8,"viability (ATP), % of control":78.2}
{"gene":"Cacna1g","PubChem SID":"SID363575463","GFP, % of control":40.4,"viability (ATP), % of control":32.1}
{"gene":"Cacna1g","PubChem SID":"SID363580039","GFP, % of control":78.6,"viability (ATP), % of control":36.4}
{"gene":"Or5b102","PubChem SID":"SID363544573","GFP, % of control":83.8,"viability (ATP), % of control":47.5}
{"gene":"Or5b102","PubChem SID":"SID363550901","GFP, % of control":98,"viability (ATP), % of control":94.1}
{"gene":"Or5b102","PubChem SID":"SID363557450","GFP, % of control":50.6,"viability (ATP), % of control":79.1}
{"gene":"Tfap2a","PubChem SID":"SID363540890","GFP, % of control":81.4,"viability (ATP), % of control":78.2}
{"gene":"Tfap2a","PubChem SID":"SID363555517","GFP, % of control":79.4,"viability (ATP), % of control":62.8}
{"gene":"Tfap2a","PubChem SID":"SID363565806","GFP, % of control":70.1,"viability (ATP), % of control":64.7}
{"gene":"Tmem178","PubChem SID":"SID363543840","GFP, % of control":60.4,"viability (ATP), % of control":91.3}
{"gene":"Tmem178","PubChem SID":"SID363551576","GFP, % of control":80.4,"viability (ATP), % of control":72.1}
{"gene":"Tmem178","PubChem SID":"SID363559181","GFP, % of control":60.2,"viability (ATP), % of control":61.1}

Part of the list above, reformatted:
gene | PubChem SID | GFP, % of control | viability (ATP), % of control
Cacna1g | SID363575463 | 40.4 | 32.1
Cacna1g | SID363580039 | 78.6 | 36.4

The listing continues:
{"gene":"Slc17a7","PubChem SID":"SID363547893","GFP, % of control":72.4,"viability (ATP), % of control":52.3}
{"gene":"Slc17a7","PubChem SID":"SID363558662","GFP, % of control":89.6,"viability (ATP), % of control":89.7}
{"gene":"Slc17a7","PubChem SID":"SID363560420","GFP, % of control":89.9,"viability (ATP), % of control":104}
{"gene":"Spint4","PubChem SID":"SID363556703","GFP, % of control":104,"viability (ATP), % of control":60.3}
{"gene":"Spint4","PubChem SID":"SID363563607","GFP, % of control":75.5,"viability (ATP), % of control":84.1}
{"gene":"Spint4","PubChem SID":"SID363587153","GFP, % of control":102,"viability (ATP), % of control":97.6}
